From paper PMC10711660, “An extended Tudor domain within Vreteno interconnects Gtsf1L and Ago3 for piRNA biogenesis in Bombyx mori” (The EMBO Journal, 2023)
These are yes or no findings as the source states them, for the method shown. A result given as binding can be weak or reduced; the word gives no strength. For part of these data: Sequences can lack the tags named with a protein. For part of these data: Binding seen in cells or lysates may run through a third protein. Each block holds one molecule with its values, some of them ahead of it.

Assays:
[1] = biological target: T1, HA‐BmGtsf1L‐eGFP (Bombyx mori); assay: co-IP; GFP-Trap magnetic agarose or control beads, lysate of BmN4 cells stably expressing HA-BmGtsf1L-eGFP; also after dsRNA knock-down of luciferase, BmAgo3 or BmVreteno; IP-150 buffer, overnight 4°C; Western blot
T1 sequence: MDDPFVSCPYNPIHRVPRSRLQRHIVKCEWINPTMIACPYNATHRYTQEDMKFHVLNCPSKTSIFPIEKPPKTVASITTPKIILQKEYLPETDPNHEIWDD

[2] = biological target: T2, endogenous BmAgo3 (Bombyx mori (endogenous in BmN4)) (UniProt A9ZSZ2); assay: co-IP; antibodies to endogenous BmAgo3, Siwi or BmVreteno on Protein G Dynabeads, lysate of naive BmN4 cells; non-immune serum or rabbit IgG as control; IP-150 buffer, overnight 4°C; Western blot
T2 sequence: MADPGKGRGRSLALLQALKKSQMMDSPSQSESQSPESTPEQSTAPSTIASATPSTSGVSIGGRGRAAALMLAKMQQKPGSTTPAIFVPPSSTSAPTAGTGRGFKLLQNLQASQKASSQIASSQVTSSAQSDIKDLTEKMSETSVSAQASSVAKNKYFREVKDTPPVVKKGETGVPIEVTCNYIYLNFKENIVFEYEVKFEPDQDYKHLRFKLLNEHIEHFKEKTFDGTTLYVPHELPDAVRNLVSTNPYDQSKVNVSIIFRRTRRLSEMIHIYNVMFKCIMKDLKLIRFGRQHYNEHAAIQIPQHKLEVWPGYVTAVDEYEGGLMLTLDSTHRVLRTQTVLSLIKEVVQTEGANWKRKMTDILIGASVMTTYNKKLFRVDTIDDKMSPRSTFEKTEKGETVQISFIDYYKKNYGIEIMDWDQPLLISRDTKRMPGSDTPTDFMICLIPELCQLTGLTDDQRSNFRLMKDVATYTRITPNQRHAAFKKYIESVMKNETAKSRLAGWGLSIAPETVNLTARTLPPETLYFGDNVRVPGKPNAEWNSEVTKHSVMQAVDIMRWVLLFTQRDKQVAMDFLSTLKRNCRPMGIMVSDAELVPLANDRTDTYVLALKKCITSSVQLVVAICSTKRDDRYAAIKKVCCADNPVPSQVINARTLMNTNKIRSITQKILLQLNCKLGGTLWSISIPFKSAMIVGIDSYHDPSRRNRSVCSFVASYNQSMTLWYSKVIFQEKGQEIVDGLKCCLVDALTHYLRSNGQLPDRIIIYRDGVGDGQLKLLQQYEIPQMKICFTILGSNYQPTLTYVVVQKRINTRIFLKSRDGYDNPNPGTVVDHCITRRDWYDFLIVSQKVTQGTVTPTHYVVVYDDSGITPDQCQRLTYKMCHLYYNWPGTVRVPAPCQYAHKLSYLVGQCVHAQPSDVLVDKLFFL

[3] = biological target: T2, endogenous BmAgo3 (Bombyx mori (endogenous in BmN4)); assay: co-IP; antibodies to endogenous BmAgo3, Siwi or BmVreteno on Protein G Dynabeads, lysate of BmN4 cells stably expressing HA-BmGtsf1L-eGFP; also after dsRNA knock-down of luciferase, BmGtsf1L or BmVreteno; IP-150 buffer, overnight 4°C; Western blot
[4] = biological target: GST‐BmVreteno‐L aromatic cage mutant (YYN > AAA) (Bombyx mori); assay: pull-down; GSH pull-down: 5 μM GST-BmVreteno (or fragment, variant) on Glutathione Sepharose 4B with 10 μM His-BmGtsf1L, 2 h 4°C, PBS with 0.1% Triton-X100; SDS-PAGE, Coomassie (Fig 5G also anti-His Western blot); both purified
[5] = biological target: GST‐BmVreteno‐S (Bombyx mori); assay: as above
[6] = biological target: BmGtsf1L‐eGFP with deletion of the C‐terminus (Bombyx mori); assay: co-IP; GFP-IP on extracts of BmN4 cells transfected with BmGtsf1L-eGFP full length, deletion variants or alanine mutants; HA-eGFP as control; Western blot of endogenous BmVreteno and BmAgo3
[7] = biological target: BmGtsf1L‐eGFP fragment missing the N‐terminal part, including the two CHHC Zn fingers (Bombyx mori); assay: as above

Molecule: endogenous BmSpn‐E (Bombyx mori (endogenous in BmN4))
- binding [1]: binds

Molecule: endogenous BmVreteno‐Short (S) isoform (Bombyx mori (endogenous in BmN4))
- binding [2]: binds
- binding [3]: binds
- binding [1]: binds

B2: endogenous BmAgo3 (protein, UniProt A9ZSZ2 1-926)
chain: MADPGKGRGRSLALLQALKKSQMMDSPSQSESQSPESTPEQSTAPSTIASATPSTSGVSIGGRGRAAALMLAKMQQKPGSTTPAIFVPPSSTSAPTAGTGRGFKLLQNLQASQKASSQIASSQVTSSAQSDIKDLTEKMSETSVSAQASSVAKNKYFREVKDTPPVVKKGETGVPIEVTCNYIYLNFKENIVFEYEVKFEPDQDYKHLRFKLLNEHIEHFKEKTFDGTTLYVPHELPDAVRNLVSTNPYDQSKVNVSIIFRRTRRLSEMIHIYNVMFKCIMKDLKLIRFGRQHYNEHAAIQIPQHKLEVWPGYVTAVDEYEGGLMLTLDSTHRVLRTQTVLSLIKEVVQTEGANWKRKMTDILIGASVMTTYNKKLFRVDTIDDKMSPRSTFEKTEKGETVQISFIDYYKKNYGIEIMDWDQPLLISRDTKRMPGSDTPTDFMICLIPELCQLTGLTDDQRSNFRLMKDVATYTRITPNQRHAAFKKYIESVMKNETAKSRLAGWGLSIAPETVNLTARTLPPETLYFGDNVRVPGKPNAEWNSEVTKHSVMQAVDIMRWVLLFTQRDKQVAMDFLSTLKRNCRPMGIMVSDAELVPLANDRTDTYVLALKKCITSSVQLVVAICSTKRDDRYAAIKKVCCADNPVPSQVINARTLMNTNKIRSITQKILLQLNCKLGGTLWSISIPFKSAMIVGIDSYHDPSRRNRSVCSFVASYNQSMTLWYSKVIFQEKGQEIVDGLKCCLVDALTHYLRSNGQLPDRIIIYRDGVGDGQLKLLQQYEIPQMKICFTILGSNYQPTLTYVVVQKRINTRIFLKSRDGYDNPNPGTVVDHCITRRDWYDFLIVSQKVTQGTVTPTHYVVVYDDSGITPDQCQRLTYKMCHLYYNWPGTVRVPAPCQYAHKLSYLVGQCVHAQPSDVLVDKLFFL
- binding [6]: binds
- binding [7]: binds

The remaining lines, values ahead:

- binding [1]: binds
Molecule: endogenous BmQin (Bombyx mori (endogenous in BmN4))

- binding [4]: binds
- binding [5]: binds
B1: His‐BmGtsf1L (natural protein, Bombyx mori)
chain: MDDPFVSCPYNPIHRVPRSRLQRHIVKCEWINPTMIACPYNATHRYTQEDMKFHVLNCPSKTSIFPIEKPPKTVASITTPKIILQKEYLPETDPNHEIWDD
notes: BmGtsf1L, Bombyx mori; pET28a, thrombin site after the His6 tag; also called His6‐thrombin‐BmGtsf1L; recombinant BmGtsf1L; source: E. coli BL21 DE3 codon+, purified (HisTrap, gel filtration); not shown: His6, N-terminal, kept
